PubChem BioAssay AID1508588 | Peter MacCallum Cancer Centre, 2020
Here is a random part of about 18,000 deposited reagents. Of all reagents, 790 (4.4%) were called active. 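Calls rest on a combination of fold-change classes in drug and vehicle arms, not all shown here.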 A reagent listed more than once was tested more than once; the source does not tell the runs apart.

Purpose: 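Which gene losses make BRAF-mutant melanoma cells more responsive to vemurafenib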 (primary screen)
Cell system: human WM266.4 melanoma cells (BRAF V600 mutant)
Knock-down reagent: siRNA pool against human genes, 40 nM
Timing: 96 h from transfection to read-out
Conditions: vemurafenib 300 nM (about IC25), added 48 h after transfection, for 48 h; comparison arm got DMSO vehicle only
Read-out: 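Ratios to non-targeting siRNA for cell gain, counted as DAPI nuclei after minus before drug and averaged over two replicates, and for absorbance-read medium lactate per cell; both binned into fold-change classes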
Reading the numbers: cell gain with vemurafenib: higher = more cell gain than with non-targeting siRNA; lactate per cell with vemurafenib: higher = more lactate made per cell
Hit rule: 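Enhancement is called by pairing each knock-down's vehicle-arm and drug-arm fold-change classes for viability or glycolysis; which class combinations qualify is not given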
Calls: active = enhances vemurafenib effect; inactive = no enhancement seen

| Gene | PubChem SID | cell gain with vemurafenib | lactate per cell with vemurafenib | activity call |
| --- | --- | --- | --- | --- |
| GPR84 (G protein-coupled receptor 84) | SID134311044 | 0.1 | 0.52 | inactive |
| KCNG2 | SID135621162 | 0.61 | 0.76 | inactive |
| KCNG2 | SID135621162 | 0.43 | 0.95 | inactive |
| GPR20 (G protein-coupled receptor 20) | SID152153936 | 0.38 | 1.02 | inactive |
| MRO (maestro) | SID134320807 | 0.55 | 1 | inactive |
| PHACTR1 (phosphatase and actin regulator 1) | SID152153713 | 0.44 | 0.8 | inactive |
| DUSP19 (dual specificity phosphatase 19) | SID134312828 | 0.92 | 1.46 | inactive |
| SLC4A9 | SID152155544 | 0.87 | 0.82 | inactive |
| TBX22 (T-box transcription factor 22) | SID134317351 | 0.66 | 0.76 | inactive |
| TMEM41B (transmembrane protein 41B) | SID135625304 | 0.5 | 1.18 | inactive |
| CEP15 (centrosomal protein 15) | SID134321794 | 0.3 | 1.01 | inactive |
| ANKRD23 (ankyrin repeat domain 23) | SID152148407 | 0.06 | 0.52 | inactive |
| HDHD2 (haloacid dehalogenase like hydrolase domain containing 2) | SID152149862 | 0.17 | 1.07 | active |
| SACK1G (scaffolding CK1 anchoring protein G) | SID135625488 | 1.09 | 0.7 | inactive |
| S1PR1 (sphingosine-1-phosphate receptor 1) | SID152154612 | 0.74 | 0.93 | inactive |
| PDXDC1 (pyridoxal dependent decarboxylase domain containing 1) | SID134325415 | 0.57 | 0.97 | inactive |
| RANGAP1 (Ran GTPase activating protein 1) | SID134312007 | 0.58 | 0.68 | inactive |
| SUPT20H (SPT20 homolog, SAGA complex component) | SID152154690 | 0.05 | 2.17 | inactive |
| CUEDC2 (CUE domain containing 2) | SID135622709 | 0.53 | 0.86 | inactive |
| SUCLG1 (succinate-CoA ligase GDP/ADP-forming subunit alpha) | SID152151093 | 0.61 | 0.97 | inactive |
| SEZ6L (seizure related 6 homolog like) | SID152148925 | 0.59 | 0.54 | inactive |
| HSP90AB1 (heat shock protein 90 alpha family class B member 1) | SID135620951 | 0.71 | 1.31 | inactive |
| DAZAP1 (DAZ associated protein 1) | SID134317611 | 1.16 | 0.42 | inactive |
| KLHDC8A (kelch domain containing 8A) | SID134324543 | 0.08 | 2.88 | inactive |
| TMEFF2 | SID134315147 | 0.8 | 0.61 | inactive |
| RALGDS (ral guanine nucleotide dissociation stimulator) | SID135620952 | 0.47 | 0.77 | inactive |
| OSTCP1 (oligosaccharyltransferase complex subunit pseudogene 1) | SID152153640 | 0.66 | 0.84 | inactive |
| GDPGP1 (GDP-D-glucose phosphorylase 1) | SID152147872 | 0.92 | 0.8 | inactive |
| KLHL35 (kelch like family member 35) | SID135623505 | 0.43 | 0.88 | inactive |
| INTS6L (integrator complex subunit 6 like) | SID152154800 | 0.36 | 1.26 | inactive |
| ETF1 (eukaryotic translation termination factor 1) | SID152149932 | 0.32 | 1.42 | inactive |
| FADS1 (fatty acid desaturase 1) | SID152149061 | 0.49 | 1.23 | inactive |
| PIGO (phosphatidylinositol glycan anchor biosynthesis class O) | SID135621632 | 0.18 | 1.22 | inactive |
| BIRC5 (baculoviral IAP repeat containing 5) | SID152154982 | -0.11 | 1.4 | inactive |
| PLCG2 (phospholipase C gamma 2) | SID152152917 | 0.33 | 0.61 | inactive |
| RMND1 (required for meiotic nuclear division 1 homolog) | SID152149917 | 0.55 | 0.58 | inactive |
| SRCIN1 (SRC kinase signaling inhibitor 1) | SID152149167 | 0.32 | 1.27 | inactive |
| ZP4 (zona pellucida glycoprotein 4) | SID134317345 | 0.63 | 0.63 | inactive |
| MIMS1 (mitochondrial inner membrane structural 1) | SID152154221 | 0.28 | 0.29 | inactive |
| NDUFS4 (NADH:ubiquinone oxidoreductase subunit S4) | SID134323380 | 1.38 | 0.57 | inactive |
| FBXO48 (F-box protein 48) | SID152149609 | 0.53 | 1.29 | inactive |
| LY6H (lymphocyte antigen 6 family member H) | SID135623786 | 0.72 | 0.73 | inactive |
| IVD (isovaleryl-CoA dehydrogenase) | SID135621901 | 0.14 | 2.8 | inactive |
| ATG10 (autophagy related 10) | SID152149967 | 0.73 | 1.09 | inactive |
| FRMD6 (FERM domain containing 6) | SID135623143 | 0.68 | 0.39 | inactive |
| AKR1B1 (aldo-keto reductase family 1 member B) | SID135620776 | 0.27 | 1.14 | inactive |
| PPP2R3A (protein phosphatase 2 regulatory subunit B''alpha) | SID134321313 | 0.4 | 1.54 | inactive |
| TMEM127 (transmembrane protein 127) | SID135623945 | 0.85 | 0.5 | inactive |
| LMAN2L (lectin, mannose binding 2 like) | SID152150593 | 0.85 | 1.21 | inactive |
| SUN5 (Sad1 and UNC84 domain containing 5) | SID134320783 | 0.38 | 1.36 | inactive |
| ZNF587 (zinc finger protein 587) | SID152153117 | 0.77 | 0.87 | inactive |
| NECAP1 (NECAP endocytosis associated 1) | SID135623411 | 0.72 | 1.16 | inactive |
| WDR54 (WD repeat domain 54) | SID134322789 | 0.56 | 1.06 | inactive |
| RIBC1 (RIB43A domain with coiled-coils 1) | SID134320983 | 0.69 | 0.58 | inactive |
| THOC1 (THO complex subunit 1) | SID152149496 | 0.49 | 1.65 | inactive |
| FOXF2 (forkhead box F2) | SID134313144 | 0.77 | 1.52 | inactive |
| RALYL (RALY RNA binding protein like) | SID135623393 | 0.87 | 1.53 | inactive |
| TPRX1 (tetrapeptide repeat homeobox 1) | SID152149240 | 0.71 | 0.88 | inactive |
| SLC5A3 | SID152152568 | 0.5 | 1.44 | inactive |
| LYZL6 (lysozyme like 6) | SID152156520 | 0.14 | 2.46 | inactive |
| PEX3 (peroxisomal biogenesis factor 3) | SID134323326 | 0.43 | 1.78 | inactive |
| MARCKSL1 (MARCKS like 1) | SID135623574 | 0.37 | 1.12 | inactive |
| OR10A3 (olfactory receptor family 10 subfamily A member 3) | SID152147664 | 0.2 | 1.28 | inactive |
| SND1 (staphylococcal nuclease and tudor domain containing 1) | SID152153941 | 0.87 | 0.67 | inactive |
| ATP2B2 (ATPase plasma membrane Ca2+ transporting 2) | SID134311535 | 0.28 | 0.66 | inactive |
| INSL6 (insulin like 6) | SID134323450 | 0.43 | 1.07 | inactive |
| KRT39 (keratin 39) | SID152153921 | 0.47 | 2.15 | inactive |
| DDX43 (DEAD-box helicase 43) | SID134317556 | 0.94 | 0.65 | inactive |
| PRMT9 (protein arginine methyltransferase 9) | SID134325924 | 0.41 | 0.88 | inactive |
| FAM216B (family with sequence similarity 216 member B) | SID134322794 | 0.94 | 1.08 | inactive |
| RNF139 (ring finger protein 139) | SID135621275 | 1.14 | 0.86 | inactive |
| OR14C36 (olfactory receptor family 14 subfamily C member 36) | SID152151454 | 0.5 | 2.06 | inactive |
| RARB (retinoic acid receptor beta) | SID135620678 | 0.38 | 1.17 | inactive |
| MRTFB (myocardin related transcription factor B) | SID134323081 | 0.54 | 0.46 | inactive |
| COX16 (cytochrome c oxidase assembly factor COX16) | SID152152865 | 0.86 | 1.16 | inactive |
| EN1 (engrailed homeobox 1) | SID152153220 | 0.88 | 1.07 | inactive |
| CD27 (CD27 molecule) | SID152152052 | 0.46 | 1.28 | inactive |
| ABCD1 (ATP binding cassette subfamily D member 1) | SID152152254 | 0.58 | 0.78 | inactive |
| COL4A4 (collagen type IV alpha 4 chain) | SID152155916 | 0.57 | 0.88 | inactive |
| KCTD2 (potassium channel tetramerization domain containing 2) | SID135625151 | 0.67 | 0.95 | inactive |
| MAP4K2 (mitogen-activated protein kinase kinase kinase kinase 2) | SID56478700 | 0.48 | 0.98 | inactive |
| SMYD5 (SMYD family member 5) | SID152153471 | 0.84 | 0.95 | inactive |
| CSNK1D (casein kinase 1 delta) | SID56478658 | 0.61 | 0.64 | inactive |
| NR4A2 (nuclear receptor subfamily 4 group A member 2) | SID134309878 | 0.71 | 0.95 | inactive |

Just “cell gain with vemurafenib” (12 entries from above):
GPR20 (G protein-coupled receptor 20) [SID152153936] = 0.38
MRO (maestro) [SID134320807] = 0.55
PHACTR1 (phosphatase and actin regulator 1) [SID152153713] = 0.44
DUSP19 (dual specificity phosphatase 19) [SID134312828] = 0.92
SLC4A9 [SID152155544] = 0.87
TBX22 (T-box transcription factor 22) [SID134317351] = 0.66
TMEM41B (transmembrane protein 41B) [SID135625304] = 0.5
CEP15 (centrosomal protein 15) [SID134321794] = 0.3
ANKRD23 (ankyrin repeat domain 23) [SID152148407] = 0.06
HDHD2 (haloacid dehalogenase like hydrolase domain containing 2) [SID152149862] = 0.17
SACK1G (scaffolding CK1 anchoring protein G) [SID135625488] = 1.09
S1PR1 (sphingosine-1-phosphate receptor 1) [SID152154612] = 0.74
